Results are given in words; binding and its absence hold for the method and conditions named. Some results given as binding are weak or reduced against the parent protein; the word gives no strength.
T1: outer-arm dynein intermediate chain IC2 (T. thermophila) (UniProt I7M008)
T1 sequence: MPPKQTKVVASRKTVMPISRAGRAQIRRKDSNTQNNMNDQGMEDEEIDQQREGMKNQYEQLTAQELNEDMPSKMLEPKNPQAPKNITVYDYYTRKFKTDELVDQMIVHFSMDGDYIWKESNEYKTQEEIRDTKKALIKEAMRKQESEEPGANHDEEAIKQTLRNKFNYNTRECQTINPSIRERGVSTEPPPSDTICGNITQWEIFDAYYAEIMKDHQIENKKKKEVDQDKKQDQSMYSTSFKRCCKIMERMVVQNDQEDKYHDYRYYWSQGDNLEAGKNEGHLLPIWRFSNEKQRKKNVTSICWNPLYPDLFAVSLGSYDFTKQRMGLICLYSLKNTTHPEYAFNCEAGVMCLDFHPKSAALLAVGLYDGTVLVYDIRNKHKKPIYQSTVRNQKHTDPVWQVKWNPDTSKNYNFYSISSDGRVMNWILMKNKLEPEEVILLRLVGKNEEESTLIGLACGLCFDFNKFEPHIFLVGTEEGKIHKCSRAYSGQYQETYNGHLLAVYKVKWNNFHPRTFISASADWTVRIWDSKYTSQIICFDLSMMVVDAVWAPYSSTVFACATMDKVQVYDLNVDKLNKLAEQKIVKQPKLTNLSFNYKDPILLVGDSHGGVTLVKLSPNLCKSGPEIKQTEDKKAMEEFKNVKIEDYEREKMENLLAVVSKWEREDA

The chains behind the UniProt entries cited, without tags or fusion partners.
UniProt Q22A67: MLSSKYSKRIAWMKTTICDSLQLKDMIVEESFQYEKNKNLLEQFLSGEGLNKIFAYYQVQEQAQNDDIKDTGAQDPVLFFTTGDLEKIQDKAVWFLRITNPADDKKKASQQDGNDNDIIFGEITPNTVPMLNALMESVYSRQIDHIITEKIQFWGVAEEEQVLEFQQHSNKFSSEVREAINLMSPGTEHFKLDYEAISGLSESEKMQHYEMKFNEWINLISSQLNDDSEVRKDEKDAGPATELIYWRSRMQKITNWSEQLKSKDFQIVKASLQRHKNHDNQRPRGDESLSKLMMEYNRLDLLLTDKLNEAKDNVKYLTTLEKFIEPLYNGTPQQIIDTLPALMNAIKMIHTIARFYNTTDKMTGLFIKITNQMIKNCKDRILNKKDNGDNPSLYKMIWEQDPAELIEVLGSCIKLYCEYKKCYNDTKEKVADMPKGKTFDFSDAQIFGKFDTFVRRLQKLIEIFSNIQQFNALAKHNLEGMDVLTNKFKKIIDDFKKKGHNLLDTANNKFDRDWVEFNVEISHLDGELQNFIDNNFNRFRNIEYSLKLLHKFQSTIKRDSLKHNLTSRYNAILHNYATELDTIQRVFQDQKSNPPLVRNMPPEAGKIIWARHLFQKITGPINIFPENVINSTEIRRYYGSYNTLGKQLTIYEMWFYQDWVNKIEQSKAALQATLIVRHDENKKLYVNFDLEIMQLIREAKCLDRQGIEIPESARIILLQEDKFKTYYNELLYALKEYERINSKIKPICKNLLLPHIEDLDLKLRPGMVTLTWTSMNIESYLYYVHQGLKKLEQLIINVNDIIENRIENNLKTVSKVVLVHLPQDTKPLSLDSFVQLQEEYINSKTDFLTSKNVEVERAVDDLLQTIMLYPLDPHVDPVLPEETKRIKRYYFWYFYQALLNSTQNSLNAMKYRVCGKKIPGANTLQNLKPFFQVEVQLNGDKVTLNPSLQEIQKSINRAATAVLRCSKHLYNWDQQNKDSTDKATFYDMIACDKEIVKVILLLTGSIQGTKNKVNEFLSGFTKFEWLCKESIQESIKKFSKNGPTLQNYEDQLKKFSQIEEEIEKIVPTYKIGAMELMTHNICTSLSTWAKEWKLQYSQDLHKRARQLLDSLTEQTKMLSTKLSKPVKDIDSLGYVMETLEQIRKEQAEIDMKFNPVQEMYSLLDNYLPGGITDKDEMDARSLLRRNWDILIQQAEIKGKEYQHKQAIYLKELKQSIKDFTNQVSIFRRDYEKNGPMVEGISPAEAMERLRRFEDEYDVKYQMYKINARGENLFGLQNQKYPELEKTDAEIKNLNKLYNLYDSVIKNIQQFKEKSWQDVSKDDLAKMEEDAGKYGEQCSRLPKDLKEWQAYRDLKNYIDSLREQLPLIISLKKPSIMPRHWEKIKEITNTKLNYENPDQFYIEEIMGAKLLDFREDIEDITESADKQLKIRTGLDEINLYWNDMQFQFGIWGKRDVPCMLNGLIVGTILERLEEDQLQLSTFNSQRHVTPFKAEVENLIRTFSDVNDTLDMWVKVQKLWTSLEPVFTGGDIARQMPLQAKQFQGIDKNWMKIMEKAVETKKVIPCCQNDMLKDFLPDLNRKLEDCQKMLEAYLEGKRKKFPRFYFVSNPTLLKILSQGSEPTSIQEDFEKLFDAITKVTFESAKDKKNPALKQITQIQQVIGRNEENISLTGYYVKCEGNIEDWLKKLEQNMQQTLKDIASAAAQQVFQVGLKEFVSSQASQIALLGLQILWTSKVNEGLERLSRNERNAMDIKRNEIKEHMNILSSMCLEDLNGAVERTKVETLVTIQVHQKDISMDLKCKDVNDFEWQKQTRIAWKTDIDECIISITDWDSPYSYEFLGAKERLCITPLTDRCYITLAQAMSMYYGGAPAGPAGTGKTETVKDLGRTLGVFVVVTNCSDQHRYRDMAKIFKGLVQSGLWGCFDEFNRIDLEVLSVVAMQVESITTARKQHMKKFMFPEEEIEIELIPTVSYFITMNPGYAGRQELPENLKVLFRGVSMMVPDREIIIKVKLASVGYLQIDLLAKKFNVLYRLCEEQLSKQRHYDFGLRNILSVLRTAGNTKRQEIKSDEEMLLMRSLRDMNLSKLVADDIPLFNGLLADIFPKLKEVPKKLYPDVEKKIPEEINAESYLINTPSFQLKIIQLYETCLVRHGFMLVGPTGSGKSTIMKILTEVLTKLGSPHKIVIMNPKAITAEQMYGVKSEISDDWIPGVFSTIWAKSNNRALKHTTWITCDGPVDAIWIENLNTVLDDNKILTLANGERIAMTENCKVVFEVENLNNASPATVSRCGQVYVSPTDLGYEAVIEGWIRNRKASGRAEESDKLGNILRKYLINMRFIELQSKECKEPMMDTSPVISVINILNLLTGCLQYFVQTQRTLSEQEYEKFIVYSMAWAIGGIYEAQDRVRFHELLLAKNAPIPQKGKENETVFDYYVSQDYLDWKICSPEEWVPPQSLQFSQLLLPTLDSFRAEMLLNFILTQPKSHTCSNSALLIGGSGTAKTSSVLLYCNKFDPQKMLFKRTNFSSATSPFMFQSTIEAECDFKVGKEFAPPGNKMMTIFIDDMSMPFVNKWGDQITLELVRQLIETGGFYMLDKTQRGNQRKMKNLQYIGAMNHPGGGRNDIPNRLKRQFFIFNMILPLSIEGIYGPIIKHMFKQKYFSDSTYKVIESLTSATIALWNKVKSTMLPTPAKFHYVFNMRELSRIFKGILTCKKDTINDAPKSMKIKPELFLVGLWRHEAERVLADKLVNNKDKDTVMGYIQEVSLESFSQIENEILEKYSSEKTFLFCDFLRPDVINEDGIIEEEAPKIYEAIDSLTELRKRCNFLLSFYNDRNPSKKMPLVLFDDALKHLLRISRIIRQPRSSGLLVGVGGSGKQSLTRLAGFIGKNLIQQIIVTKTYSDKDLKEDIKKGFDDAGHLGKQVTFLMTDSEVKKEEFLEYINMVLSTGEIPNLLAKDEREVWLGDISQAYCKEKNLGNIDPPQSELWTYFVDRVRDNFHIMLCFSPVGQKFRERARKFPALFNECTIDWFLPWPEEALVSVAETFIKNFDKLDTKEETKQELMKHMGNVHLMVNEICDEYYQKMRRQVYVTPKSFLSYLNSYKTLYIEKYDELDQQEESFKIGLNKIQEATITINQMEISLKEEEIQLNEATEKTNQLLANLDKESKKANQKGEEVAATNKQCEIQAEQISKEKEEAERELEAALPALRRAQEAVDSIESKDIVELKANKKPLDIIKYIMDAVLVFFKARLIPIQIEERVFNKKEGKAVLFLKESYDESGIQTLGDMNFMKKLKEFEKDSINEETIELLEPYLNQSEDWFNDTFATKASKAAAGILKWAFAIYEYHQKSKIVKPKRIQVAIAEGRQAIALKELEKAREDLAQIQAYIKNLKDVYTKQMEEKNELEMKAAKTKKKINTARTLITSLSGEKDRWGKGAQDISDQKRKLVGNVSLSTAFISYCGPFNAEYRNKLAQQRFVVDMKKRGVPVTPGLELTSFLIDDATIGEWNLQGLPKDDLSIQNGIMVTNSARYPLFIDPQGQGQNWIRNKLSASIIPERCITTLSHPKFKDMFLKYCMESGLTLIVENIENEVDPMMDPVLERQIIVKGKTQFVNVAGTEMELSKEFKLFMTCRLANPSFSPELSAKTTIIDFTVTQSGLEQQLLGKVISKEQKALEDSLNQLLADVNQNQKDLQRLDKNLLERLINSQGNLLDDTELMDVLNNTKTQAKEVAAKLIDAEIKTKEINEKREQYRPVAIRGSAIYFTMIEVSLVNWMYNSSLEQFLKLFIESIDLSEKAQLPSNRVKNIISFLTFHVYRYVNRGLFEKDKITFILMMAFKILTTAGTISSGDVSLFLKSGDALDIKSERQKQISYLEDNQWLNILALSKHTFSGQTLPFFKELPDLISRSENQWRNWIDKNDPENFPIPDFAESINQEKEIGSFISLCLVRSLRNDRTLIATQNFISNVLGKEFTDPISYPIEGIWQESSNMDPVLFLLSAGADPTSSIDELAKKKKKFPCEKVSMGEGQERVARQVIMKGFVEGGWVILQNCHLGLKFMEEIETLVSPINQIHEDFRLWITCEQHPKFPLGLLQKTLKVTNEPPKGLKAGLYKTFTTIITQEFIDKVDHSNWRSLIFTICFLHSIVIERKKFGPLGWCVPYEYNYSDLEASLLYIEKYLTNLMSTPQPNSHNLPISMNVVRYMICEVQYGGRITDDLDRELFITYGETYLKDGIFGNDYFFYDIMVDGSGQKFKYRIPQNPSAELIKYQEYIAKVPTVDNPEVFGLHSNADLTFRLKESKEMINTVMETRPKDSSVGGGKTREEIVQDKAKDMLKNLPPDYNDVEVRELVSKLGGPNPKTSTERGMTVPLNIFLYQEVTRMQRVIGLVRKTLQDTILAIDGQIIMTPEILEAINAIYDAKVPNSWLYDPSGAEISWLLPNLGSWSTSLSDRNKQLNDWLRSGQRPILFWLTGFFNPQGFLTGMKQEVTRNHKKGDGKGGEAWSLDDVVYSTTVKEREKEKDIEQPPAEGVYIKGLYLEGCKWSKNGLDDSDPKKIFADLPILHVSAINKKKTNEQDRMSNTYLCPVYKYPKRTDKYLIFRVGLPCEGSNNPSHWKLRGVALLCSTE

T2: LC8-2b (LC8 homolog TTHERM_00023950) (T. thermophila) (UniProt Q22R86)
T2 sequence: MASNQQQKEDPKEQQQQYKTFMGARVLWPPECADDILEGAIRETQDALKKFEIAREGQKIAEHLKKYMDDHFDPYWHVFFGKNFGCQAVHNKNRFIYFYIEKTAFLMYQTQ

T3: Tctex-b (LC2A) (T. thermophila) (UniProt C0HME8)
T3 sequence: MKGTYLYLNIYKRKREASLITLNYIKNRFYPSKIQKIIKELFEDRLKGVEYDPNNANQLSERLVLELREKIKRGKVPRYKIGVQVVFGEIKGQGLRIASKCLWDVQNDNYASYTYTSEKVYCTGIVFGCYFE

T4: LC8-3b (LC8 homolog TTHERM_000442909) (T. thermophila) (UniProt W7XJB1)
T4 sequence: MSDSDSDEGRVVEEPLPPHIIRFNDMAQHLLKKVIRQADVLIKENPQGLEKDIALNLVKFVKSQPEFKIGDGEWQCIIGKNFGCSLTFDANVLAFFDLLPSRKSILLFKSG

T5: outer-arm dynein intermediate chain IC3 (T. thermophila) (UniProt Q23FU1)
T5 sequence: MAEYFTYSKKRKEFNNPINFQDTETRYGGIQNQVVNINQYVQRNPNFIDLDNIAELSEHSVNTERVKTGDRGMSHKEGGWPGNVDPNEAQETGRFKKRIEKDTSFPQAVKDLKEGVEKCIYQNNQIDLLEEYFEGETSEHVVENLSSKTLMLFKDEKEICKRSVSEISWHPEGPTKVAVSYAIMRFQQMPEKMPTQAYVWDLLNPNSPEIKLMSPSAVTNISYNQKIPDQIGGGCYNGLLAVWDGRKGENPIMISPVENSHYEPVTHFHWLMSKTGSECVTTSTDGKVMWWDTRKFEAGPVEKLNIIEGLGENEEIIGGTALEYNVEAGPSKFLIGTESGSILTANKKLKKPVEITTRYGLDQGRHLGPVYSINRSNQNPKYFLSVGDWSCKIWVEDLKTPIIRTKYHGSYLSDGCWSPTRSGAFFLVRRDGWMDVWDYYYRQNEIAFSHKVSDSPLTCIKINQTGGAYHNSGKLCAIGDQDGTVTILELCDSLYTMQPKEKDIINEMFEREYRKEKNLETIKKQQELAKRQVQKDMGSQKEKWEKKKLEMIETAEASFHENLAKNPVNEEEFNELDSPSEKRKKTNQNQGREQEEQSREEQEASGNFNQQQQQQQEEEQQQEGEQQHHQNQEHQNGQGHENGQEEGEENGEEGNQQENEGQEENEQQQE

T6: LC8-3a (LC8 homolog TTHERM_01079060) (T. thermophila) (UniProt Q24CE5)
T6 sequence: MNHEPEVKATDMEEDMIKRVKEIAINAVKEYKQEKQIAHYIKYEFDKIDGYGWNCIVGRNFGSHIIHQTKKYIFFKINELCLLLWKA

B1: LC8-3a (LC8 homolog TTHERM_01079060) (protein, UniProt Q24CE5 1-87)
chain: T6 sequence
B2: Tctex-a (hypothetical Tctex homolog TTHERM_00392979) (protein, UniProt A4VEB3 1-117)
chain: MGDTDKEYISEEVQKAIDDSVKQVFGIKDDSSQVTITYNKDKVNLWTQQIIDYTIRGLNKLGKHFKYCVTAILQQTNHAGISVQITAYQDTNTDGSLIQCYEINDIYAIVSVFAMAV
B3: LC7-a (unnamed LC7A homolog, TTHERM_00348650) (protein, UniProt Q22MV2 1-159)
chain: MIYKTSKEIQKSDQRIIQQRVENSIINNQIYQKSLKRKTSKRKVRHQANKKNFQKEMSEVEDTLNRIKTHKTVLGYLIVNSEGGVVRGAFKDEEESKNIANSIPLLTKKARSVVRDLDPTNDLVFLRIQTKLNEIMVAPDDEFSLIVIQTKGEKRDEND
B4: LC8-2b (LC8 homolog TTHERM_00023950) (protein, UniProt Q22R86 1-111)
chain: T2 sequence
B5: LC8-3b (LC8 homolog TTHERM_000442909) (protein, UniProt W7XJB1 1-111)
chain: T4 sequence
B6: Tctex-b (LC2A) (protein, UniProt C0HME8 1-132)
chain: T3 sequence
B7: outer-arm dynein intermediate chain IC2 (protein, UniProt I7M008 1-667)
chain: T1 sequence
B8: outer-arm dynein intermediate chain IC3 (protein, UniProt Q23FU1 1-670)
chain: T5 sequence

target: T1, outer-arm dynein intermediate chain IC2 (T. thermophila); experiment: cryo-EM structure; freshly purified native OAD (not cross-linked) reconstituted on MTD in 20 mM HEPES pH 7.4, 100 mM KCl, 5 mM MgSO4, 1 mM DTT, on ice 45 min; apo state, no docking complex; two classes MTBS-1 and MTBS-2; MTD lattice refined from the same data; both purified

| Binder | binding |
| --- | --- |
| B1 | binds |
| B2 | binds |
| B3 | binds |
| B4 | binds |
| B5 | binds |

target: T2, LC8-2b (LC8 homolog TTHERM_00023950) (T. thermophila); experiment: as above

| Binder | binding |
| --- | --- |
| B2 | binds |
| B6 | binds |

target: T3, Tctex-b (LC2A) (T. thermophila); experiment: as above

| Binder | binding |
| --- | --- |
| B2 | binds |

target: T4, LC8-3b (LC8 homolog TTHERM_000442909) (T. thermophila); experiment: as above

| Binder | binding |
| --- | --- |
| B1 | binds |
| B2 | binds |
| B6 | binds |

target: T5, outer-arm dynein intermediate chain IC3 (T. thermophila); experiment: as above

| Binder | binding |
| --- | --- |
| B1 | binds |
| B2 | binds |
| B3 | binds |
| B4 | binds |
| B5 | binds |

target: T6, LC8-3a (LC8 homolog TTHERM_01079060) (T. thermophila); experiment: as above

| Binder | binding |
| --- | --- |
| B2 | binds |
| B6 | binds |

target: outer-arm dynein α heavy chain (T. thermophila) (UniProt Q22A67); experiment: as above

| Binder | binding |
| --- | --- |
| B1 | binds |
| B2 | binds |
| B4 | binds |
| B5 | binds |
| B6 | binds |
| B7 | binds |
| B8 | binds |

From paper PMC8500839, “Structures of outer-arm dynein array on microtubule doublet reveal a motor coordination mechanism” (Nature Structural & Molecular Biology, 2021)
